# Measured values published in the supplement of paper PMC4749390.
# Structures can show the parent of a compound that is named as a salt. This is one part of the list. This data set is noisy: repeats of one test often differ as much as different tests do.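 Wild-type human LRH-1, a heavily sumoylated nuclear receptor, is tetracycline-inducible in stable JEG3 cells. RT-qPCR measured SUMO-sensitive APOC3 and MUC1 transcripts, which rise with SUMO-less LRH-1 or UBC9 knockdown, versus TBP and DMSO controls. Robust Z-scores beyond ±2 flagged primary hits, followed by toxicity and TBP filtering.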
# System: JEG3 expressing hLRH-1
# Test: MUC1 transcript change (ddCt vs TBP and DMSO), Z-score over library; higher = higher MUC1 expression
# Conditions: 10 µM; time (hr): 24
row,Structure (SMILES),MUC1 transcript change (Z-score)
1,CCCCCCCCCCCCCCCC[N+](C)(C)C [cetrimonium bromide],0.873
2,CC1=C(C(=O)O)N2C(=O)[C@@H](NC(=O)[C@H](N)c3ccc(O)cc3)[C@H]2SC1 [cefadroxil],0.301
3,COC(=O)C1=C(C)N=C(C)/C(=C(/O)OC)C1c1ccccc1[N+](=O)[O-] (stereo not drawn) [Nifedipine],-1.79
4,CN(C)c1ccc(O)c2c1C[C@H]1C[C@H]3[C@H](N(C)C)C(=O)C(C(N)=O)=C(O)[C@@]3(O)C(=O)C1=C2O [minocycline hydrochloride],1.86
5,CCc1cc(C(N)=S)ccn1 [ethionamide],-0.181
6,CC1=C(/C=C/C(C)=C/C=C/C(C)=C/CO)C(C)(C)CCC1 [retinol],0.0634
7,C=C[C@H]1CN2CC[C@H]1C[C@@H]2[C@@H](O)c1ccnc2ccc(OC)cc12 [quinidine gluconate],1.09
8,CN(C)CC/C=C1\c2ccccc2Sc2ccc(Cl)cc21 [chlorprothixene hydrochloride],-0.443
9,Nc1ccc(N=Nc2ccccc2)c(N)n1 [phenazopyridine hydrochloride],0.0264
10,CCN(CC)C(=O)N1CCN(C)CC1 [diethylcarbamazine citrate],-0.106
11,CC(=O)[C@H]1CC[C@H]2[C@@H]3CC=C4C[C@@H](OC(=O)CCC(=O)O)CC[C@]4(C)[C@H]3CC[C@]12C [pregnenolone succinate],0.389
12,CN1CCN(C2=Nc3cc(Cl)ccc3Nc3ccccc32)CC1 [Clozapine],1.1
13,NCCC[C@H](N)CC(=O)N[C@H]1CNC(=O)[C@H]([C@H]2C[C@H](O)N=C(N)N2)NC(=O)/C(=C/NC(N)=O)NC(=O)[C@H](CO)NC(=O)[C@H](CO)NC1=O [viomycin sulfate],0.993
14,Nc1cc(-c2ccncc2)cnc1O [amrinone],-0.341
15,NC(=O)NO [hydroxyurea],0.269
16,CN/C(=C\[N+](=O)[O-])NCCSCc1csc(CN(C)C)n1 [nizatidine],0.808
17,CCCCOc1ccc(CC(=O)NO)cc1 [bufexamac],-0.511
18,CC(=O)Oc1cc(C(C)C)c(OCCN(C)C)cc1C [moxisylyte hydrochoride],-0.605
19,Nc1ccn(C2CSC(CO)O2)c(=O)n1 (stereo not drawn) [lamivudine],-1.28
20,Clc1ccccc1C(c1ccccc1)(c1ccccc1)n1ccnc1 [clotrimazole],0.807
21,CCc1nn(CCCN2CCN(c3cccc(Cl)c3)CC2)c(=O)n1CCOc1ccccc1 [nefazodone hydrochloride],-0.944
22,Cc1cn([C@H]2C=C[C@@H](CO)O2)c(=O)[nH]c1=O [stavudine],1.04
23,COc1ccnc(CS(=O)c2nc3cc(OC(F)F)ccc3[nH]2)c1OC (stereo not drawn) [pantoprazole],0.717
24,COc1ccccc1OCC(O)COC(N)=O (stereo not drawn) [methocarbamol],0.15

# Single values from the entries so far.
# NCCC[C@H](N)CC(=O)N[C@H]1CNC(=O)[C@H]([C@H]2C[C@H](O)N=C(N)N2)NC(=O)/C(=C/NC(N)=O)NC(=O)[C@H](CO)NC(=O)[C@H](CO)NC1=O [viomycin sulfate] | MUC1 transcript change (Z-score): 0.993
# CN/C(=C\[N+](=O)[O-])NCCSCc1csc(CN(C)C)n1 [nizatidine] | MUC1 transcript change (Z-score): 0.808
# Nc1ccn(C2CSC(CO)O2)c(=O)n1 (stereo not drawn) [lamivudine] | MUC1 transcript change (Z-score): -1.28

# (further entries)

row,Structure (SMILES),MUC1 transcript change (Z-score)
1,COc1ccc2c(c1)c(CC(=O)O)c(C)n2C(=O)c1ccc(Cl)cc1 [Indomethacin],0.741
2,CC1(C)O[C@@H]2[C@@H](CO[C@@]3(COS(N)(=O)=O)OC(C)(C)O[C@@H]23)O1 [topiramate],-0.663
3,CC(=O)OCC(=O)[C@@]1(O)CCC2C3CCC4=CC(=O)CC[C@]4(C)C3[C@@H](O)C[C@@]21C (stereo partly drawn) [hydrocortisone acetate],-0.753
4,CC(C)CCC[C@@H](C)[C@H]1CC[C@H]2[C@@H]3CC=C4C[C@@H](O)CC[C@]4(C)[C@H]3CC[C@]12C [cholesterol],0.977
5,O=C(O)CCc1nc2ccccc2[nH]1 [procodazole],0.215
6,C[N+](C)(C)CCOP(=O)([O-])OP(=O)(O)OC[C@H]1O[C@@H](n2ccc(N)nc2=O)[C@H](O)[C@@H]1O [citicoline],0.774
7,CN1C(=O)CC[C@H]1c1cccnc1 [cotinine],0.461
8,O=C(O)c1cn(-c2ccc(F)cc2)c2cc(N3CCNCC3)c(F)cc2c1=O [sarafloxacin hydrochloride],0.368
9,CCCCC(CC)CCC(CC(C)C)OS(=O)(=O)O (stereo not drawn) [sodium tetradecyl sulfate],0.323
10,N[C@@H]1CONC1=O [D-Cycloserine],-0.0421
11,O=C(O)c1cc(O)c2c(c1)[C@@H]([C@H]1c3cc(C(=O)O)cc(O)c3C(=O)c3c(O[C@H]4O[C@H](CO)[C@@H](O)[C@H](O)[C@H]4O)cccc31)c1cccc(O[C@H]3O[C@H](CO)[C@@H](O)[C@H](O)[C@H]3O)c1C2=O (stereo in doubt) [sennoside a],0.566
12,CC(=O)NC[C@H]1CN(c2ccc(N3CCOCC3)c(F)c2)C(=O)O1 [linezolid],1.64
13,CC(=O)O[C@]1(C(C)=O)CC[C@H]2[C@@H]3C=C(Cl)C4=CC(=O)[C@@H]5C[C@@H]5[C@]4(C)[C@H]3CC[C@@]21C [cyproterone acetate],0.5
14,Nc1nc(O)c2ncn(COC(CO)CO)c2n1 [ganciclovir],0.832
15,O=S(=O)(c1cccc2cnccc12)N1CCCNCC1 [fasudil hydrochloride],-0.949
16,CC(C)/N=C(N)/N=C(\N)Nc1ccc(Cl)cc1 [chlorguanide hydrochloride],1.31
17,c1ccc(-c2ccc(C(c3ccccc3)n3ccnc3)cc2)cc1 (stereo not drawn) [bifonazole],-0.206
18,CCCCCCCCCCCCCCCC(=O)OC[C@@H](NC(=O)C(Cl)Cl)[C@H](O)c1ccc([N+](=O)[O-])cc1 [chloramphenicol palmitate],0.117
19,CCOc1nc2cccc(C(=O)OC(C)OC(=O)OC3CCCCC3)c2n1Cc1ccc(-c2ccccc2-c2nn[nH]n2)cc1 (stereo not drawn) [candesartan cilextil],0.0709
20,CCN(CC)CCNC(=O)c1cc(S(C)(=O)=O)ccc1OC [tiapride hydrochloride],0.568
21,O=C1CN(/N=C/c2ccc(-c3ccc([N+](=O)[O-])cc3)o2)C(=O)N1 [dantrolene sodium],0.143
22,Nc1nnc(-c2cccc(Cl)c2Cl)c(N)n1 [lamotrigine],-0.256
23,CC(=O)Oc1ccccc1C(=O)O [aspirin],0.52
24,COCCCC/C(=N\OCCN)c1ccc(C(F)(F)F)cc1 [fluvoxamine maleate],0.387
